This assay concerns L1210 leukemia ip in BDF1 mice, survival T/C. As to the kind of experiment: NCI In Vivo Anticancer Drug Screen. Data for tumor model L1210 Leukemia (intraperitoneal) in B6D2F1 (BDF1) mice. Conditions: T/C endpoint: mean survival time, higher T/C = longer survival.
Where [1] appears, read: dose: 100.0 mg/kg/injection, schedule: Q04DX002 (ip), vehicle: Klucel (hydroxypropylcellulose) (HPC).

The list is a part of this screen's results and no random one: it gathers some chemical classes. Other doses and runs of a compound may be missing. T/C: endpoint of the treated group in % of that of the vehicle group. Some entries give survivors of the animals treated and no T/C: the source holds a T/C of zero for them, seemingly a mark for toxic or unscored doses. Counts of survivors are from the toxicity check (mostly the fifth day) where no day follows; animals may have died later. Schedules are NCI's codes, taken here to give the interval after Q, in days (D) or hours (H), and the number of doses after X. Some schedules carry Z or #; the key to these is not given. Some metal complexes and salts are drawn in pieces, as in the source, so charges may not balance. For survival time, the PubChem record calls one and a half times the control and up active, and a quarter to a half above the control has no call in these data; cut-offs in other NCI protocols can differ. Some T/C values carry the count of animals alive at the toxicity check (mostly the fifth day); where neither a count nor a note follows, no animal had died by that day. Some entries were tested several times; the results are listed from low to high.

`O=C(O)CCc1cccc(N(CCCl)CCCl)c1`: the T/C (dose: 2.0 mg/kg/injection, schedule: Q01DX Z (ip), vehicle: saline) was 101 % of control; the T/C (dose: 3.0 mg/kg/injection, schedule: Q01DX Z (ip), vehicle: methylcellulose (MC)) was 106 % of control; the T/C (dose: 4.0 mg/kg/injection, schedule: Q01DX Z (ip), vehicle: saline) was 97 % of control; the T/C (dose: 6.0 mg/kg/injection, schedule: Q01DX Z (ip), vehicle: methylcellulose (MC)) is 91 % of control; the T/C (dose: 8.0 mg/kg/injection, schedule: Q01DX Z (ip), vehicle: methylcellulose (MC)) is 109 % of control; the T/C (dose: 8.0 mg/kg/injection, schedule: Q01DX Z (ip), vehicle: saline) is 101 % of control. In addition, the T/C runs as follows: (dose: 11.0 mg/kg/injection, schedule: Q01DX Z (ip), vehicle: carboxymethylcellulose (CMC)) 105 % of control; (dose: 12.0 mg/kg/injection, schedule: Q01DX Z (ip), vehicle: methylcellulose (MC)) 87 [5 of 6 alive] and 112 % of control; (dose: 17.0 mg/kg/injection, schedule: Q01DX Z (ip), vehicle: carboxymethylcellulose (CMC)) 114 % of control; (dose: 18.0 mg/kg/injection, schedule: Q01DX Z (ip), vehicle: methylcellulose (MC)) 115 % of control; (dose: 24.0 mg/kg/injection, schedule: Q01DX Z (ip), vehicle: methylcellulose (MC)) 126 % of control [5 of 6 alive]; (dose: 24.0 mg/kg/injection, schedule: Q01DX Z (ip), vehicle: saline) 112 and 125 % of control. Also, the T/C reads like this: (dose: 25.0 mg/kg/injection, schedule: Q04DX002 (ip), vehicle: Klucel (hydroxypropylcellulose) (HPC)) 111 % of control; (dose: 26.0 mg/kg/injection, schedule: Q01DX Z (ip), vehicle: carboxymethylcellulose (CMC)) 114 % of control; (dose: 27.0 mg/kg/injection, schedule: Q01DX Z (ip), vehicle: methylcellulose (MC)) 113 % of control [5 of 6 alive]; (dose: 36.0 mg/kg/injection, schedule: Q01DX Z (ip), vehicle: saline) 118 and 134 % of control; (dose: 40.0 mg/kg/injection, schedule: Q01DX Z (ip), vehicle: carboxymethylcellulose (CMC)) 117 and 132 % of control; (dose: 50.0 mg/kg/injection, schedule: Q04DX002 (ip), vehicle: Klucel (hydroxypropylcellulose) (HPC)) 108 % of control. For the same molecule, the T/C by setting is: (dose: 54.0 mg/kg/injection, schedule: Q01DX Z (ip), vehicle: saline) 150 % of control; (dose: 100.0 mg/kg/injection, schedule: Q01DX001 (ip), vehicle: carboxymethylcellulose (CMC)) 117 % of control; under setting [1], 99 % of control [2 of 3 alive]. Also, the survivor count reads like this: (dose: 48.0 mg/kg/injection, schedule: Q01DX Z (ip), vehicle: methylcellulose (MC)) 2 of 6; (dose: 60.0 mg/kg/injection, schedule: Q01DX Z (ip), vehicle: carboxymethylcellulose (CMC)) 3 of 6; (dose: 72.0 mg/kg/injection, schedule: Q01DX Z (ip), vehicle: saline) 0 of 6; (dose: 90.0 mg/kg/injection, schedule: Q01DX Z (ip), vehicle: carboxymethylcellulose (CMC)) 0 of 6; under setting [1], 0 of 3; (dose: 200.0 mg/kg/injection, schedule: Q01DX001 (ip), vehicle: carboxymethylcellulose (CMC)) 0 of 4. The survivor count reads like this: (dose: 200.0 mg/kg/injection, schedule: Q04DX002 (ip), vehicle: Klucel (hydroxypropylcellulose) (HPC)) 0 of 3; (dose: 400.0 mg/kg/injection, schedule: Q01DX001 (ip), vehicle: carboxymethylcellulose (CMC)) 0 of 4; (dose: 400.0 mg/kg/injection, schedule: Q04DX002 (ip), vehicle: Klucel (hydroxypropylcellulose) (HPC)) 0 of 3.

On to `O=[N+]([O-])c1cc(Cl)c(O)c([N+](=O)[O-])c1`, for which the T/C is, setting by setting: (dose: 50.0 mg/kg/injection, schedule: Q01DX001 (ip), vehicle: saline) 96 % of control; (dose: 100.0 mg/kg/injection, schedule: Q01DX001 (ip), vehicle: saline) 98 % of control; (dose: 200.0 mg/kg/injection, schedule: Q01DX001 (ip), vehicle: saline) 98 % of control. Moreover, the survivor count (dose: 400.0 mg/kg/injection, schedule: Q01DX001 (ip), vehicle: saline) is reported as 0 of 4.

For `CC1=NCC[N-]CCC[N-]CCN=C(C)[CH-]1.F[P-](F)(F)(F)(F)F.[Ni+2]`, the T/C runs as follows: (dose: 12.5 mg/kg/injection, schedule: Q04DX002 (ip), vehicle: other) 94 % of control; (dose: 25.0 mg/kg/injection, schedule: Q04DX002 (ip), vehicle: other) 105 % of control; (dose: 50.0 mg/kg/injection, schedule: Q04DX002 (ip), vehicle: other) 94 % of control. Also, the survivor count is given as 1 of 3 (dose: 100.0 mg/kg/injection, schedule: Q04DX002 (ip), vehicle: other); 0 of 3 (dose: 200.0 mg/kg/injection, schedule: Q04DX002 (ip), vehicle: other); 1 of 3 (dose: 400.0 mg/kg/injection, schedule: Q04DX002 (ip), vehicle: other).

The record behind these values is PubChem BioAssay AID248 (DTP/NCI, 2004).
